# Data as given in PubChem BioAssay AID1159584 (Peter MacCallum Cancer Centre, 2016)
# Aim: 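Genes that CDH1-null MCF10A cells selectively depend on to survive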 (primary screen)
# Cell system: human MCF10A breast epithelial cells, parental and CDH1-null
# Knock-down reagent: siRNA against human genes
# Measurement: 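ATP luminescence (CellTiter-Glo) viability per line relative to mean mock wells over all plates, and the ratio of CDH1-null to parental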
# Reading the numbers: CDH1-null / parental viability ratio: higher = CDH1-null cells survive relatively better than parental; CDH1-null viability vs mock: higher = more viable CDH1-null cells; parental viability vs mock: higher = more viable parental cells
# This is one part, drawn at random, of about 18,000 reagents tested. Not given: the amount of reagent, the time to read-out.
Gene,CDH1-null / parental viability ratio,CDH1-null viability vs mock (fraction of mock),parental viability vs mock (fraction of mock)
PDHX (GeneID 8050),1.06,0.72,0.68
HDAC3 (GeneID 8841),0.85,0.78,0.92
GHR (GeneID 2690),1,0.93,0.93
FBXO25 (GeneID 26260),1.14,1.05,0.92
NT5C2 (GeneID 22978),1,0.83,0.83
CHEK2 (GeneID 11200),1.02,1.02,1
H2AC14 (GeneID 8331),1.22,1.12,0.92
UBE3D (GeneID 90025),1.15,0.68,0.59
DHRS11 (GeneID 79154),1.34,1.03,0.77
LIAS (GeneID 11019),0.92,0.83,0.9
ZNF76 (GeneID 7629),1.16,0.96,0.83
RANBP9 (GeneID 10048),0.87,0.52,0.6
WNT5B (GeneID 81029),0.76,0.5,0.66
TMBIM1 (GeneID 64114),1.05,0.92,0.88
MAPK1 (GeneID 5594),0.83,0.4,0.48
TPH1 (GeneID 7166),0.92,0.87,0.95
UTP25 (GeneID 27042),0.87,0.52,0.6
ELAVL2 (GeneID 1993),1.21,1.09,0.9
BTF3L4 (GeneID 91408),0.76,0.74,0.98
DPYS (GeneID 1807),1.35,1.01,0.75
DLGAP1 (GeneID 9229),0.96,0.67,0.7
SPAG6 (GeneID 9576),0.9,0.8,0.89
UBR3 (GeneID 130507),0.86,0.49,0.57
CHST6 (GeneID 4166),1.07,1.16,1.08
EDA2R (GeneID 60401),1.09,1.02,0.94
FRMD4A (GeneID 55691),1.05,0.84,0.8
ELK4 (GeneID 2005),0.98,0.86,0.88
PLG (GeneID 5340),1.21,0.92,0.76
SPATA12 (GeneID 353324),0.79,0.6,0.76
SFTPB (GeneID 6439),1.2,0.98,0.82
MYH10 (GeneID 4628),1.07,0.98,0.92
ZNF135 (GeneID 7694),1.15,0.97,0.84
TBCA (GeneID 6902),1.34,1.02,0.76
ZCCHC9 (GeneID 84240),0.93,0.54,0.58
NDRG2 (GeneID 57447),1,0.95,0.95
STRIP1 (GeneID 85369),1.04,0.81,0.78
TUBB8 (GeneID 347688),1.26,0.68,0.54
GSTO1 (GeneID 9446),1.04,0.94,0.9
VGLL2 (GeneID 245806),1.35,0.7,0.52
UQCRB (GeneID 7381),0.99,1.04,1.05
TESMIN (GeneID 9633),0.86,0.83,0.96
GTF2E1 (GeneID 2960),0.86,0.74,0.86
PANX3 (GeneID 116337),1.14,1.19,1.04
OCLM (retired record) (GeneID 10896),1.13,0.88,0.78
GSG1L (GeneID 146395),1.2,0.66,0.55
CDCP1 (GeneID 64866),1.17,1.11,0.95
UPK1A (GeneID 11045),0.99,0.73,0.74
SFT2D1 (GeneID 113402),1.25,1,0.8
ITGB7 (GeneID 3695),0.98,0.62,0.63
TCEAL1 (GeneID 9338),0.83,0.78,0.94
ZNF669 (GeneID 79862),0.81,0.63,0.78
TMEM54 (GeneID 113452),1.4,0.74,0.53
TCTN2 (GeneID 79867),0.88,0.57,0.65
PRKAA2 (GeneID 5563),0.82,0.8,0.98
BAIAP3 (GeneID 8938),1.19,0.7,0.59
OR51B4 (GeneID 79339),1.2,0.96,0.8
LIPE (GeneID 3991),1.14,0.75,0.66
CHMP4A (GeneID 29082),1.23,0.86,0.7
ATP6V1G2 (GeneID 534),1,0.84,0.84
SOBP (GeneID 55084),1.45,0.87,0.6
MRO (GeneID 83876),1.13,1.02,0.9
LUZP4 (GeneID 51213),0.78,0.63,0.81
LINC02915 (GeneID 400360),1.21,0.88,0.73
NPEPL1 (GeneID 79716),1.48,0.8,0.54
FAH (GeneID 2184),1.06,0.93,0.88
REG1A (GeneID 5967),1.11,0.8,0.72
TXNDC11 (GeneID 51061),0.87,0.73,0.84
PI4KAP2 (GeneID 375133),0.95,0.8,0.84
